{
  "source": "patent US20100016232A1",
  "about": "“Treatment Of Inflammatory Diseases With Mammal Beta Defensins” (Novozymes A/S, priority 2008, published 2010)",
  "system": "collagen-induced arthritis (CIA) in the mouse",
  "experiment": "Collagen-induced rheumatoid arthritis model, clinical arthritis score",
  "type": "in vivo",
  "conditions": "1 mg/kg intraperitoneal (Group B); study day 26 until the end of the study",
  "description": "All animals were subjected on Day 0 of the study (study commencement) to an intradermal injection into the tail of 0.1 ml Type II Collagen/CFA emulsion (200 μg collagen per mouse) under light Isoflurane anesthesia, using a plastic syringe. The location of injection was at an approximate caudal distance of about 1 cm from the base of the tail. A collagen challenge (200 μg/mouse) was presented to the animals by IP injection of collagen and PBS on Day 21.\nTreatments were commenced on day 14 of the study and continued once daily throughout. All surviving mice were terminated on study day 42.\nMice were examined for signs of arthritogenic responses in peripheral joints on study day 0, 14, 21 and thereafter five times weekly until termination of the study. Arthritis reactions were reported for each paw according to a 0-4 scale in ascending order of severity as shown below:\nIn accordance with Home Office regulations mice with a total clinical score of equal to or greater than 12 were culled due to arthritis severity. The clinical score of these mice at termination was carried forward in the analysis for the remainder of the study in order that the data was not artificially skewed by the removal of high scoring mice.",
  "note": "For at least one compound, name, drawing or mass did not settle the structure.",
  "data": [
    {"smiles": "C[C@@H]1C[C@H]2[C@@H]3CCC4=CC(=O)C=C[C@]4(C)[C@@]3(F)[C@@H](O)C[C@]2(C)[C@@]1(O)C(=O)CO", "note": "[Dexamethasone, reference compound]", "values": [
      {"measurement": "arthritic score compared to the vehicle treated group", "value": "significantly lower"}
    ]}
  ]
}
